Assay results reported in paper PMC11989440.
No constants are given. Whether binding was seen depends on the method and setting. In cells and extracts the contact can be indirect. Some entries that bind do so weakly or less than the wild type.

Sequences of proteins named here, by UniProt entry; tags and fusion partners are left off.
UniProt Q8N4S9: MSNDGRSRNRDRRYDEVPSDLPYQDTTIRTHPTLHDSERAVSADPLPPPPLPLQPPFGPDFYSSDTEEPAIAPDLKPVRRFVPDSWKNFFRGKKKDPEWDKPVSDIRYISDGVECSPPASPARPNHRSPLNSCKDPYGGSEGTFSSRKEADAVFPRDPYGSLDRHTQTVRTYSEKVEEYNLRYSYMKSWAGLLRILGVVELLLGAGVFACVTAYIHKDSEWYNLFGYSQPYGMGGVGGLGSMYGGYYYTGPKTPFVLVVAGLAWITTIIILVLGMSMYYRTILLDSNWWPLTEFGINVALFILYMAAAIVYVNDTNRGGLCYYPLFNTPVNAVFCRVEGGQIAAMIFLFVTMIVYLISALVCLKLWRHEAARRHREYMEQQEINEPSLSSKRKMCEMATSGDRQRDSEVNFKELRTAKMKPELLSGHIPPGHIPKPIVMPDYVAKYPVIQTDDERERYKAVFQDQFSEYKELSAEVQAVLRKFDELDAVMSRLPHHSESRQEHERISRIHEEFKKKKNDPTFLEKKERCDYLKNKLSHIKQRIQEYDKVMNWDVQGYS
UniProt Q07157: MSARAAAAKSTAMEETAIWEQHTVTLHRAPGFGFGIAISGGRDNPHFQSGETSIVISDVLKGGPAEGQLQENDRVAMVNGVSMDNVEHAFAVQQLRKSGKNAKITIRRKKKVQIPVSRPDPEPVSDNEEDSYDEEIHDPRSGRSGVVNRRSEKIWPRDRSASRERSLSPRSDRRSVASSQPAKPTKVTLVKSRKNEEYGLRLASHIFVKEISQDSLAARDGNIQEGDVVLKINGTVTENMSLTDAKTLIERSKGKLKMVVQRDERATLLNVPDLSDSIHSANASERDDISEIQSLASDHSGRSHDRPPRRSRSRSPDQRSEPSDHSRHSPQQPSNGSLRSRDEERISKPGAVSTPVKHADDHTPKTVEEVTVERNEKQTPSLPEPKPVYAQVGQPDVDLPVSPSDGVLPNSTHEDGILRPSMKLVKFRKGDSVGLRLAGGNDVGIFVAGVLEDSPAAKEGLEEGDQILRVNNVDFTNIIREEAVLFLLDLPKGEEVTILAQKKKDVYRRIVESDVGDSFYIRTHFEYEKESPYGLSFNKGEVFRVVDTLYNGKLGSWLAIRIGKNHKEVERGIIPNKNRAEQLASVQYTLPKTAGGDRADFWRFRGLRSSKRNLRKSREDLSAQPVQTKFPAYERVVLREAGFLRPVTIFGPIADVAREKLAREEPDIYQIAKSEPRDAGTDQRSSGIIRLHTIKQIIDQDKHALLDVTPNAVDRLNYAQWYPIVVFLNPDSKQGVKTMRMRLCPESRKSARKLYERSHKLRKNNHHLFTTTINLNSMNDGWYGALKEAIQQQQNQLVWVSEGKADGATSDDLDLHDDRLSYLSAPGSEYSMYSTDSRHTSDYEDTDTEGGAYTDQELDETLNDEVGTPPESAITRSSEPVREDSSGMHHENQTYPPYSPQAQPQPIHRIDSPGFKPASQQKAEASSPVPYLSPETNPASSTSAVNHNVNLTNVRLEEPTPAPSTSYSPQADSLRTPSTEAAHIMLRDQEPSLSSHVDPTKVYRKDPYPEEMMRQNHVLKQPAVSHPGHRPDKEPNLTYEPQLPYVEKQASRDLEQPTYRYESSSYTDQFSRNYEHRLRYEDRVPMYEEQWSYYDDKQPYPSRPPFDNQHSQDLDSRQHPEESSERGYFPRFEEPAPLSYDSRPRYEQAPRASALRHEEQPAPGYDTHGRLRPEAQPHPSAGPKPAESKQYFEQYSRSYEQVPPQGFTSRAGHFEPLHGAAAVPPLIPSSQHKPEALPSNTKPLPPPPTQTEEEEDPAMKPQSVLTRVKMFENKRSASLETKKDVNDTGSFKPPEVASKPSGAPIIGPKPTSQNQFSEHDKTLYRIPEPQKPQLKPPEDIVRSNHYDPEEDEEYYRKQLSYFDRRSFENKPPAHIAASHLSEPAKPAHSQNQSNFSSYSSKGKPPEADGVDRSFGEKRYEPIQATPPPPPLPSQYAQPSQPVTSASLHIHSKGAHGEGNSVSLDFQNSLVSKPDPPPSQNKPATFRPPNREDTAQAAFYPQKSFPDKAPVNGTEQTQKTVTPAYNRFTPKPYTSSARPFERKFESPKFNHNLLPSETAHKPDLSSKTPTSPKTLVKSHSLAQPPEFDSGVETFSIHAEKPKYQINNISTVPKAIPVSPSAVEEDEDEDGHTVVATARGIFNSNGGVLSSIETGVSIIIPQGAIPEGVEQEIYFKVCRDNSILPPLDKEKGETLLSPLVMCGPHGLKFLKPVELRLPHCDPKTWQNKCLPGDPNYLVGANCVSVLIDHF

Molecular target: MARVEL domain containing 2 (MARVELD2), wild type, FLAG-tagged (human) (UniProt Q8N4S9)
Assay: co-IP; lysates of HEK-293 cells 48 h after transfection with FLAG-MARVELD2 wild type or mutant; 100 ug protein; antibodies against ZO-1, FLAG or IgG control at 4 °C overnight, protein A agarose beads; SDS-PAGE and blot stained for ZO-1; lysis buffer with NaCl, 1% Triton X-100, 0.1% SDS, Tris pH 7.5, 1% deoxycholate

binding: binds
Substance: zonula occludens-1 (ZO-1) (from UniProt Q07157 1-1748)
